According to a compilation of properties of binary mixtures (doi:10.1016/j.molliq.2017.08.056):
“And” between values parts separate entries of the source, which are not always exact repeats. Equal entries are not always repeated. The densities may have been worked out from excess volumes.

Assay: xn = mol fraction of the nth substance listed
Details: 101 kPa, x1 = 0.0001

CCCC[n+]1ccn(C)c1.[Br-] + O
mass density (288.15 K): 999.2 kg/m3 and 999.4 kg/m3 | mass density (298.15 K): 997.2 kg/m3 | mass density (308.15 K): 994.2 kg/m3
